What all share (assay): co-IP
One experiment concerns the target T1, 2xFlag-196/197AA (human) (UniProt Q9P2S5).
T1 sequence: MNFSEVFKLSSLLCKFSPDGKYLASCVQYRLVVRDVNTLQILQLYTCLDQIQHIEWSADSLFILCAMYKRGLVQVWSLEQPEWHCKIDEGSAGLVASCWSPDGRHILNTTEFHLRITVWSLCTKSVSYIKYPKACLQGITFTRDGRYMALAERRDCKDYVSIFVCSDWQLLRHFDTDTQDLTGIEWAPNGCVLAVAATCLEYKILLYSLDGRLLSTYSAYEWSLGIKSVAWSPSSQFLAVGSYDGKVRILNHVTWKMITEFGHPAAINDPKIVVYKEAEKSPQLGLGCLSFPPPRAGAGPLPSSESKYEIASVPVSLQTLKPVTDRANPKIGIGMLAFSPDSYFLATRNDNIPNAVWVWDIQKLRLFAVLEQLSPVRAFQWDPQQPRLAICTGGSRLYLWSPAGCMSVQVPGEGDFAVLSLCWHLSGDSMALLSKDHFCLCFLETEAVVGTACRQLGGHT

The next experiment has as its target T2, 2xFlag-359/360AA (human) (UniProt Q9P2S5).
T2 sequence: T1 sequence with A196W, A197D, W359A, D360A

Experiment [1] addresses T3, 2xFlag-huWdr8 wild-type (human) (UniProt Q9P2S5).
T3 sequence: T1 sequence with A196W, A197D

Experimental findings from publication doi:10.1101/031336 are described below.

Changes are numbered by the printed parent chain. Results are given in words; binding and its absence hold for the method and conditions named. In cells and extracts the contact can be indirect. For part of these data: Binding calls can cover weak binding; strength is not graded here. Where a sequence is shown, tags or fusion partners need not be part of it.

Consider SSX2IP, for which the binding result with 2xFlag-196/197AA (human) is recorded as “no binding”; in the experiment with 2xFlag-359/360AA (human), “no binding”; in experiment [1] it was “binds”.
